Source: PubChem BioAssay AID1224826 (NIAID, 2016)
Purpose: 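Knock-downs that raise or lower Tnf reporter signal after endotoxin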 (primary screen). Cells: RAW264.7 G9 macrophages from mouse bearing reporters for p65 (GFP) and the Tnf promoter (mCherry). Knock-down reagent: siRNA pool against mouse genes, 100 nM. Duration: 16 h of LPS stimulation, after 2 days of siRNA transfection. Challenge: bacterial lipopolysaccharide (Salmonella minnesota R595), 10 ng/ml. Read-out: 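Nuclear mCherry signal of the Tnf promoter reporter measured by imaging after background removal, scaled to each plate median and turned into robust z-scores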. Scale: Tnf reporter robust z-score: higher = stronger Tnf promoter reporter signal after LPS. Hit rule: 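a well counts as active at a score of -1.3 or below (Tlr4 knock-down control median) or above 3 (raised signal); controls and wells holding fewer than 50 cells are excluded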. Calls: active = Tnf reporter clearly lowered or raised; inactive = no clear change in Tnf reporter.
This is a random part of about 17,000 reagents tested. Over the whole deposit, about 1,110 (6.6%) were called active. 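Active means lowered or raised reporter signal; replicate intensities are raw and not normalised per plate.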 Unmarked entries are inactive. Further read-outs or replicates are left out here.

Slc24a4 scored Tnf reporter robust z-score -0.4; fewer than 50 cells in well enough cells in well.
Rest showed Tnf reporter robust z-score 0.48; fewer than 50 cells in well enough cells in well.
Knock-down of Ints4 came out at: fewer than 50 cells in well fewer than 50 cells per well; well left out of calls.
Against Srrt, the values are Tnf reporter robust z-score -1.67 (active); fewer than 50 cells in well enough cells in well.
With knock-down of Nefh the results were Tnf reporter robust z-score -0.13; fewer than 50 cells in well enough cells in well.
With knock-down of Fpgs, the record shows Tnf reporter robust z-score -0.63; fewer than 50 cells in well enough cells in well.
After knock-down of Tm9sf4, the record shows fewer than 50 cells in well fewer than 50 cells per well; well left out of calls.
Depletion of Pmm2 gave: Tnf reporter robust z-score -0.43; fewer than 50 cells in well enough cells in well.
With knock-down of Trmt44 the results were fewer than 50 cells in well fewer than 50 cells per well; well left out of calls.
With knock-down of Pdpr, the record shows fewer than 50 cells in well fewer than 50 cells per well; well left out of calls.
After knock-down of Gcnt2, the record shows Tnf reporter robust z-score 0.65; fewer than 50 cells in well enough cells in well.
Against Opn1mw, the values are Tnf reporter robust z-score -0.61; fewer than 50 cells in well enough cells in well.

2 consecutive entries already listed, for reference:
Nefh — Tnf reporter robust z-score: -0.13; fewer than 50 cells in well: enough cells in well
Fpgs — Tnf reporter robust z-score: -0.63; fewer than 50 cells in well: enough cells in well

Further results follow:
For Prkd1 the deposit lists Tnf reporter robust z-score 0.22; fewer than 50 cells in well enough cells in well.
For Atp9b the deposit lists Tnf reporter robust z-score 0.65; fewer than 50 cells in well enough cells in well.
For Oprk1, the values are Tnf reporter robust z-score -0.55; fewer than 50 cells in well enough cells in well.
With knock-down of Hlcs the results were Tnf reporter robust z-score -0.08; fewer than 50 cells in well enough cells in well.
Knock-down of Mterf4 resulted in: fewer than 50 cells in well fewer than 50 cells per well; well left out of calls.
Silencing of Sigirr resulted in: Tnf reporter robust z-score 0.09; fewer than 50 cells in well enough cells in well.
Knock-down of Chpf resulted in: Tnf reporter robust z-score 1.25; fewer than 50 cells in well enough cells in well.
For Slco2b1 the deposit lists Tnf reporter robust z-score -2 (active); fewer than 50 cells in well enough cells in well.
Knock-down of Cfd came out at: Tnf reporter robust z-score -0.78; fewer than 50 cells in well enough cells in well.
